Assay results reported in PubChem BioAssay AID1671190 (National Center for Advancing Translational Sciences (NCATS), 2021).
The campaign covered roughly 580,000 compounds. About 6,100 (1.1%) were called active. The inconclusive results got no clear call from the source; some entries with a clear call stand among them for comparison. The call rests on the fitted dose curve; in most records, active means well fitted inhibition curve with a large enough effect; inconclusive means small, poorly fitted or top-dose-only effect, or another doubt; inactive means no such curve, though single readings can be large or run the other way. Potencies of inconclusive entries are doubtful fits and often do not repeat.

Sequences of proteins named here, by UniProt entry; tags and fusion partners are left off. A change or cut given only in a name is not applied to a line headed by its entry.
UniProt P18054: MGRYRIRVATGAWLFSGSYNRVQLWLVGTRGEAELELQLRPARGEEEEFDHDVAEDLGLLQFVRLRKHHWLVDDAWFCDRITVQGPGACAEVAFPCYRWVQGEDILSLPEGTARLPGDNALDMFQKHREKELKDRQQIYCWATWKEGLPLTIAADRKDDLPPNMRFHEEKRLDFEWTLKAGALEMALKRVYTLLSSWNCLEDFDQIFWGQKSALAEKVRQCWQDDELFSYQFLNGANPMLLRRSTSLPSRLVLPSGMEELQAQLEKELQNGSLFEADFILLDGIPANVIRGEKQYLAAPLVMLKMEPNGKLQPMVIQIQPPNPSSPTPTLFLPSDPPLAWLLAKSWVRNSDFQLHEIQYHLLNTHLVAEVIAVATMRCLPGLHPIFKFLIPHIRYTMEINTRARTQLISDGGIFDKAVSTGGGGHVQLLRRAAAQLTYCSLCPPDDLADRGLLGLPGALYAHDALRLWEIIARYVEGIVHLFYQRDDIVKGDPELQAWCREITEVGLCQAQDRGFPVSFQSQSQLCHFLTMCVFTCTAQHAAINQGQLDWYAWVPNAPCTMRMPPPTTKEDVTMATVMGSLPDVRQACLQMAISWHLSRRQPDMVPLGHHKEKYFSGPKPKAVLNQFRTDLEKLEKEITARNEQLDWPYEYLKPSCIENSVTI

biological target: Polyunsaturated fatty acid lipoxygenase ALOX12 (Homo sapiens) (UniProt P18054); assay: Primary qHTS assay for inhibitors of human arachidonate 12S-lipoxygenase (ALOX12): Round 2; details: purified 12hLO, xylenol orange hydroperoxide absorbance; activity change, negative = inhibition: at 108 µM (top of the series) unless noted
Summary of the method: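 Purified human 12hLO (150 nM final) in 25 mM Hepes, 0.01% Triton X-100, pH 7.0 was preincubated 15 min at room temperature with compound. Then 40 uM arachidonic acid was added, 30 min. Hydroperoxide was read by Fe-XO absorbance ratio 573/405 nm.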
On the % scale 0 is the no-effect control and ±100 the full control effect; potency means the concentration at half of the fitted maximal effect.

**Q.** With O=[N+]([O-])c1ccccc1CNCCCCO as the molecule, how does the Potency read?
**A.** Its Potency is inconclusive: 89.1 µM [inhibitor, partial curve, poor fit].

**Q.** CCN(CC)c1ccc(NS(=O)(=O)c2ccc3c(c2)oc(=O)n3C)c(C)c1 was tested. Which Potency did it give?
**A.** The Potency was inconclusive: 100 µM [inhibitor, single point].

**Q.** How did the Potency turn out when Cc1cc(Br)c(NC(=O)COC(=O)c2ccc(O)cc2)c(Br)c1 was run?
**A.** Its Potency is inconclusive: 50.1 µM [inhibitor, partial curve, poor fit].

**Q.** For Fc1ccccc1NC(=S)NCCc1c[nH]c2ccccc12, which Potency is on record?
**A.** The Potency was inconclusive: 89.1 µM [inhibitor, partial curve, poor fit].

**Q.** O=C(c1ccc2c(c1)N(Cc1ccccc1F)C(=O)c1ccccc1S2(=O)=O)N1CCC(Cc2ccccc2)CC1 was tested. Which Potency did it give?
**A.** Its Potency is inconclusive: 100 µM [inhibitor, partial curve, poor fit].

**Q.** With S=c1[nH]c(-c2cccs2)cn1-c1ccccc1 as the molecule, how does the Potency read?
**A.** Its Potency is inconclusive: 25.1 µM [inhibitor, partial curve].

**Q.** CCC(C)NC(=O)CN1C(=O)N(c2c(C)cccc2C)S(=O)(=O)c2ccccc21 (centres undefined) was tested. Which “activity change, negative = inhibition” value did it give?
**A.** The value was inactive: -7.2%.

**Q.** How did the Potency turn out when Cc1ccccc1COc1ccc(-c2nnn(CC(=O)O)n2)cc1 was run?
**A.** Its Potency is inconclusive: 39.8 µM [inhibitor, partial curve, poor fit].

**Q.** For Cc1ccc(CN2C(=O)COCc3cc(-c4cccc(CO)c4)ccc32)cc1, which Potency is on record?
**A.** Its Potency is inconclusive: 89.1 µM [inhibitor, single point].

**Q.** Which Potency does the source give for O=C(O)c1ccccc1C(=O)OCCc1cc2ccccc2c(=O)o1 here?
**A.** The Potency was inconclusive: 89.1 µM [inhibitor, single point].

**Q.** With CN(CC1CCN(CCc2cccc(C(F)(F)F)c2)CC1)C(=O)c1ccccc1 as the molecule, how does the “activity change, negative = inhibition” value read?
**A.** Its value is inactive: -1.47%.

**Q.** How did the activity change, negative = inhibition turn out when O=CN1CCN(C(C(=O)NC2CCCC2)c2ccc(Cl)cc2)CC1 (centres undefined) was run?
**A.** Its activity change, negative = inhibition is inconclusive: -40.9% [inhibitor].

**Q.** Which “activity change, negative = inhibition” value does the source give for CNCCNC[C@H](Cc1cccc2ccccc12)NCCc1ccccc1 here?
**A.** Its value is inactive: -0.732%.

**Q.** CN(CC(=O)NC(=O)NCCC1=CCCCC1)C1CCCCC1 was tested. Which “activity change, negative = inhibition” value did it give?
**A.** Its value is inactive: -7.13%.

**Q.** Which “activity change, negative = inhibition” value does the source give for COc1ccc2c(CC(=O)OCC(=O)Nc3cc(C)c(C)cc3[N+](=O)[O-])coc2c1 here?
**A.** Its value is inactive: -1.66%.

**Q.** How did the Potency turn out when Cc1sc(NC(=O)CCC(=O)O)c(C(N)=O)c1-c1ccccc1 was run?
**A.** The Potency was inconclusive: 50.1 µM [inhibitor, partial curve, poor fit].

**Q.** For O=C(COc1ccc(/C=N/NS(=O)(=O)c2ccccc2)cc1)NCc1ccccc1, which “activity change, negative = inhibition” value is on record?
**A.** Its value is inactive: 155%.

**Q.** With O=C(NCCN1CCN(Cc2ccccc2)CC1)c1ccc(CS(=O)(=O)c2c(Cl)cccc2Cl)o1 as the molecule, how does the Potency read?
**A.** Its Potency is inconclusive: 126 µM [inhibitor, single point].

**Q.** For CC(C)c1ccc(C(N)=S)cc1, which Potency is on record?
**A.** The Potency was inconclusive: 79.4 µM [inhibitor, partial curve, poor fit].

**Q.** How did the Potency turn out when CCOc1ccc(Nc2oc(-c3ccccc3)nc2C#N)cc1 was run?
**A.** The Potency was inconclusive: 10 µM [inhibitor, partial curve, poor fit].

**Q.** With CC(=O)N1CCCc2cc(S(=O)(=O)N(C)Cc3ccccc3)ccc21 as the molecule, how does the Potency read?
**A.** The Potency was inconclusive: 100 µM [inhibitor, partial curve, poor fit].

**Q.** With CCn1nc(C)c2c(-c3ccccc3)cc(=O)n(C(C)C(=O)NCCC(C)C)c21 (centres undefined) as the molecule, how does the Potency read?
**A.** Its Potency is inconclusive: 70.8 µM [inhibitor, partial curve, poor fit].

**Q.** With COc1ccc(NS(=O)(=O)c2ccc3oc(=S)[nH]c3c2)cc1 as the molecule, how does the Potency read?
**A.** The Potency was inconclusive: 112 µM [inhibitor, single point].

**Q.** Cc1ccc2c(c1)c1c3n2CCN(C(=O)C2CC2)C3CCC1 (centres undefined) was tested. Which Potency did it give?
**A.** The Potency was inconclusive: 39.8 µM [inhibitor, partial curve].

**Q.** With COc1ccc(C(=O)Nc2ccc([C@H]3OCC(=O)N(Cc4ccc(F)cc4)[C@@H]3CO)cc2)cc1 as the molecule, how does the “activity change, negative = inhibition” value read?
**A.** Its value is inactive: 3.61%.

**Q.** O=C(Cc1ccc(Cl)cc1)N1CCN(c2cc(-c3cccs3)[nH]n2)CC1 was tested. Which Potency did it give?
**A.** Its Potency is inconclusive: 17.8 µM [inhibitor, full curve].

**Q.** For Cc1nn(C(C)C)c(C)c1NC(=O)c1cc2occc2n1Cc1ccc(Cl)cc1, which Potency is on record?
**A.** The Potency was inconclusive: 44.7 µM [inhibitor, partial curve, poor fit].

**Q.** Which Potency does the source give for CC1CCN(S(=O)(=O)c2ccc(NC(=O)c3cc(=O)c4cc(Cl)ccc4o3)cc2)CC1 here?
**A.** Its Potency is inconclusive: 112 µM [inhibitor, partial curve, poor fit].

**Q.** For COc1cc([C@@H]2CC=C(C(=O)O)[C@H](c3ccccc3)N2S(=O)(=O)c2ccc(C)cc2)cc(OC)c1OC, which Potency is on record?
**A.** The Potency was inconclusive: 89.1 µM [inhibitor, partial curve, poor fit].

**Q.** CCc1ccc(OC(C)C(=O)N2CCC(c3nc4ccccc4o3)CC2)cc1 (centres undefined) was tested. Which Potency did it give?
**A.** Its Potency is inconclusive: 35.5 µM [inhibitor, partial curve, poor fit].

**Q.** COc1ccc(CNS(=O)(=O)c2ccc(N3CCCCS3(=O)=O)cc2)cc1 was tested. Which Potency did it give?
**A.** The Potency was inconclusive: 63.1 µM [inhibitor, partial curve, poor fit].

**Q.** With O=C(NCc1ccccc1C(F)(F)F)c1cccc2c1C(=O)c1ccc(N3CCC(N4CCCCC4)CC3)cc1S2(=O)=O as the molecule, how does the Potency read?
**A.** Its Potency is inconclusive: 50.1 µM [inhibitor, partial curve, poor fit].

**Q.** For Cc1c(C(=O)OCC(=O)Nc2ccc(C(=O)N(C)C)cc2)oc2ccccc12, which Potency is on record?
**A.** The Potency was inconclusive: 100 µM [inhibitor, single point].

**Q.** How did the Potency turn out when C[C@@H]1CN([C@H](C)CO)C(=O)CCCn2nncc2CO[C@H]1CN(C)Cc1cccnc1 was run?
**A.** The Potency was inconclusive: 25.1 µM [inhibitor, single point].

**Q.** For Cc1ccc(C(=O)COC(=O)c2nc(Cl)ccc2Cl)cc1, which Potency is on record?
**A.** The Potency was inconclusive: 7.08 µM [inhibitor, full curve, poor fit].

**Q.** For COc1ccc(NC(=O)CC2C(=O)N(c3cccc(OC)c3)C(=O)N2CCc2cccs2)cc1 (centres undefined), which “activity change, negative = inhibition” value is on record?
**A.** The value was inactive: 8.08%.

**Q.** How did the “activity change, negative = inhibition” value turn out when CC[C@H]1c2[nH]c3ccccc3c2C[C@@H]2C(=O)N(c3ccc(F)cc3)C(=O)N21 was run?
**A.** The value was inactive: -5.72%.

**Q.** For NC(=O)c1ccc(Oc2ccc3ccc(=O)oc3c2)c([N+](=O)[O-])c1, which Potency is on record?
**A.** Its Potency is inconclusive: 44.7 µM [inhibitor, partial curve, poor fit].

**Q.** For Cc1ccsc1C(=O)/C(C#N)=C\c1ccc(C(=O)O)cc1, which Potency is on record?
**A.** Its Potency is inconclusive: 6.31 µM [inhibitor, full curve, poor fit].
